# Data taken from publication PMC11655846.
# These are yes or no findings as the source states them, for the method shown. Binding seen in cells or lysates may run through a third protein. These calls come from enrichment with a bait or labelling near it, and not all partners need be listed.
# T1: ubiquitin-specific peptidase 39 (USP39) (human (endogenous in NCI-H1975)) (UniProt Q53GS9)
# T1 sequence: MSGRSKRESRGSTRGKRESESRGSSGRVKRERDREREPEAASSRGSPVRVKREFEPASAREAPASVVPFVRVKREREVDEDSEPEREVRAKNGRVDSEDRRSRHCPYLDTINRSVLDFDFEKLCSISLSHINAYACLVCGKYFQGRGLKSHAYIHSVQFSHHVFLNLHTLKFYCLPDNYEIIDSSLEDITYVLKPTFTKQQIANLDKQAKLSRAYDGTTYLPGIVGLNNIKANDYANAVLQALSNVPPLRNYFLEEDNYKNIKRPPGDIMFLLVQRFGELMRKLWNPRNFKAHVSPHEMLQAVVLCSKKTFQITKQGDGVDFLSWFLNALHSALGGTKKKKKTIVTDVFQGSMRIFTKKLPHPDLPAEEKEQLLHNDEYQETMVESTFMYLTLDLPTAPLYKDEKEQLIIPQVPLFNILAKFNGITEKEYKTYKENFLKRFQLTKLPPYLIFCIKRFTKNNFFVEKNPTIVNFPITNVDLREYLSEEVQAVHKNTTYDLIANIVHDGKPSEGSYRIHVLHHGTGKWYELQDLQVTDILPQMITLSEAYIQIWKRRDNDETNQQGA
# B1: dihydrolipoamide S-acetyltransferase (DLAT) (enzyme, UniProt P10515 87-647)
# chain: SLPPHQKVPLPSLSPTMQAGTIARWEKKEGDKINEGDLIAEVETDKATVGFESLEECYMAKILVAEGTRDVPIGAIICITVGKPEDIEAFKNYTLDSSAAPTPQAAPAPTPAATASPPTPSAQAPGSSYPPHMQVLLPALSPTMTMGTVQRWEKKVGEKLSEGDLLAEIETDKATIGFEVQEEGYLAKILVPEGTRDVPLGTPLCIIVEKEADISAFADYRPTEVTDLKPQVPPPTPPPVAAVPPTPQPLAPTPSAPCPATPAGPKGRVFVSPLAKKLAVEKGIDLTQVKGTGPDGRITKKDIDSFVPSKVAPAPAAVVPPTGPGMAPVPTGVFTDIPISNIRRVIAQRLMQSKQTIPHYYLSIDVNMGEVLLVRKELNKILEGRSKISVNDFIIKASALACLKVPEANSSWMDTVIRQNHVVDVSVAVSTPAGLITPIVFNAHIKGVETIANDVVSLATKAREGKLQPHEFQGGTFTISNLGMFGIKNFSAIINPPQACILAIGASEDKLVPADNEKGFDVASMMSVTLSCDHRVVDGAVGAQWLAEFRKYLEKPITMLL
# Target: T1, ubiquitin-specific peptidase 39 (USP39) (human (endogenous in NCI-H1975))
# Assay: affinity purification with mass spectrometry; endogenous USP39 immunoprecipitated from NCI-H1975 lysate (1% digitonin, 150 mM NaCl, 25 mM Tris, pH 7.5) with USP39 antibody on Dynabeads Protein A, overnight; beads washed four times with PBS; on-bead trypsin digest, LC-MS/MS; isotype antibody control
binder,measurement,value
B1,binding,binds
